Assay results: the supplement of paper PMC3334620
Over roughly 33,000 sequences, “E-score (-0.5 to 0.5)” has its median near -0.0034; the highest 2% begin near 0.25. Some of the results follow.

target: T1, Yap3 (UniProt P38749); experiment: PBM E-score (8-mer binding enrichment) (E-score (-0.5 to 0.5)); higher = stronger / more preferred TF binding; conditions: protein concentration: 100 nM; construct: GST-full length
T1 sequence: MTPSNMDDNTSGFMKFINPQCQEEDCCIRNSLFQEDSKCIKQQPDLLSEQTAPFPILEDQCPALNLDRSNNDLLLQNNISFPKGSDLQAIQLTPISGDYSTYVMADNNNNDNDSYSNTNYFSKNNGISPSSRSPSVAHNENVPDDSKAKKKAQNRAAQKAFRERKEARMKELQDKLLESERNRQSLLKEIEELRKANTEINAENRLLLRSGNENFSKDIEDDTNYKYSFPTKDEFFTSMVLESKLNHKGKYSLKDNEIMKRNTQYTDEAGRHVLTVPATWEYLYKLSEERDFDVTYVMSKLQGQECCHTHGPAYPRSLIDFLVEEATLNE
Summary of the method: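 Masliner-normalised scans of fluorescent anti-GST signal were the basis for scoring. That signal came from GST-tagged yeast transcription factors applied at about 100-200 nM to double-stranded universal all-10-mer Agilent arrays on fresh or once-stripped slides. Each ungapped eight-base word, pooled with its reverse complement, received an E-score from the Universal PBM Analysis Suite.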

| Sequence | PBM E-score |
| --- | --- |
| CGCCTACA | 0.0235 |
| AGTAACAA | 0.129 |
| AGATGAGC | 0.0668 |
| TATGTAGA | 0.0392 |
| CATGCAAG | -0.0305 |
| CCGAGCTA | -0.16 |
| CACGAGGA | -0.0608 |
| TCAATCAA | 0.122 |
| AGTTCACA | -0.0341 |
| AGGTTAGA | -0.172 |
| CGCCAGGC | -0.209 |
| AGTACTCG | 0.194 |
| ACTCCGCT | -0.14 |
| CTTTTCCA | -0.067 |
| CTCAGGCC | -0.273 |
| CGTGCCTA | -0.14 |
| ACCGCAAC | 0.093 |
| CGTATATC | 0.00115 |
| ATCCCCCC | -0.372 |
| AAACGGCT | -0.0738 |
| AAGTGAAG | 0.0289 |
| ACTATCAT | 0.207 |
| ATGGAGTG | -0.0686 |
| ACAGTCCC | -0.269 |
| TAGGGGAA | -0.0007 |

| Sequence | PBM E-score |
| --- | --- |
| GCCATTAA | 0.0111 |
| GCATGCAC | -0.0435 |
| CCGAATCA | -0.0896 |
| CACATCAA | 0.0645 |
| TACGTGCA | 0.0517 |
| AGCTCTAG | -0.0862 |
| GAATCAAC | 0.142 |
| CATGGGTC | -0.137 |
| GGGTCGTA | -0.162 |
| GACACGAA | 0.0437 |
| GCGTTATA | 0.112 |
| GACTCCCA | -0.193 |
| ACCCCATA | -0.177 |
| CCTTGAAG | -0.165 |
| AGAAGGAT | -0.166 |
| AGGGCGTC | -0.169 |
| CTTCGTGC | -0.019 |
| ATGGGCCC | -0.292 |
| CAACGGAC | -0.0672 |
| AATAAGAA | 0.269 |
| AGACTTCA | -0.241 |
| GTCCTCTA | -0.147 |
| AAAGAATA | 0.224 |
| TCCCGACA | 0.0209 |
| CTCAATCC | 0.00177 |

| Sequence | PBM E-score |
| --- | --- |
| GGCGACTA | -0.0103 |
| TAGCCTCA | -0.024 |
| ACGCCAGC | -0.175 |
| CGCCGCAG | -0.139 |
| CGCTTGCA | -0.0205 |
| ATTTTACA | 0.145 |
| CTCCCCTA | -0.233 |
| ACGACAAA | 0.166 |
| ACGTAGCG | -0.0713 |
| CTTCAGCC | -0.134 |
| AAAACACC | 0.0622 |
| AGTCGATC | -0.0827 |
| TCCTAACA | 0.128 |
| TACCACAA | 0.123 |
| AGCAGGCA | -0.18 |
| CCATTAGC | -0.0279 |
| CGATTCAG | -0.0182 |
| GCTGTCTA | -0.117 |
| AATTGGTA | 0.158 |
| CGAGTTAA | 0.132 |
| CGGGCCTC | -0.0723 |
| CACTGAAG | -0.0613 |
| AAGAGTCT | -0.0997 |
| CAAGGTCG | -0.0141 |
| GGCGTATA | -0.0969 |

| Sequence | PBM E-score |
| --- | --- |
| ATGCTAGA | -0.0113 |
| ACCGAACC | -0.188 |
| AAGTTATA | 0.175 |
| GCTAGCGA | 0.0245 |
| ACGGAGAC | 0.0369 |
| GATTAACA | 0.232 |
| ACAAAGCG | 0.162 |
| ATGGATGG | -0.0764 |
| CGGCTCGA | -0.124 |
| TCTAGTAA | 0.0732 |
| CATCCTGG | 0.0541 |
| ATTACCGG | -0.0144 |
| CGTAGGAA | 0.00989 |
| ACAGCCGT | -0.0768 |
| TCATTAGA | 0.0685 |
| AGACCTGG | -0.0312 |
| ATTACTAC | 0.0177 |
| TCGCGCCA | -0.0451 |
| ATTAGCAG | 0.112 |
| CCATTGGC | -0.163 |
| AGTTTCGA | -0.0266 |
| GGTATTTA | 0.104 |
| AAAAGAAG | 0.0691 |
| GAACTTGA | 0.0484 |
| ACGGACCG | -0.298 |

Random excerpt: four entries already listed.

| Sequence | PBM E-score |
| --- | --- |
| CATCCTGG | 0.0541 |
| TCATTAGA | 0.0685 |
| GCTAGCGA | 0.0245 |
| GGTATTTA | 0.104 |

A section from further up, as a working copy:

| Sequence | PBM E-score |
| --- | --- |
| AAAAGAAG | 0.0691 |
| GAACTTGA | 0.0484 |
| ACGGACCG | -0.298 |

Further entries follow:

| Sequence | PBM E-score |
| --- | --- |
| ATGCTTTC | 0.17 |
| CCGGAGAG | -0.292 |
| CTAACCGC | -0.128 |
| AGGTGGTG | -0.105 |
| CTATAGAA | -0.00393 |
| GATGATCC | -0.0664 |
| ACTCGGGC | -0.115 |
| ATGATGTA | 0.211 |
| AGCACATA | 0.0101 |
| ATTTCCCC | 0.106 |
| GATGCACA | -0.173 |
| GTTGTCGA | -0.0764 |
| ACTAACCG | 0.055 |
| ATAAGAAA | 0.207 |
| ACCCGAGT | -0.0562 |
| AACTTTCC | 0.00171 |
| TACCTACA | 0.0898 |
| AACGAGAA | 0.183 |
| AACGAAAA | 0.181 |
| CTTACGTA | 0.349 |
| CTAACTCC | -0.17 |
| TTATCGAA | 0.109 |
| ATCGTAGA | -0.117 |
| TAGTCGGA | 0.00489 |
| ACGCCAAG | -0.351 |

| Sequence | PBM E-score |
| --- | --- |
| CCGGGCTC | -0.256 |
| AGGGTCGC | -0.186 |
| GAACGAGC | 0.0184 |
| AATAAGCA | 0.148 |
| AAGAAGCG | -0.127 |
| CGATTCAC | -0.025 |
| ATACGCAA | 0.153 |
| ACTGGGGA | -0.344 |
| AACTGGAC | 0.0415 |
| AGTCTTGA | -0.142 |
| AATTATCA | 0.288 |
| AGGACACG | -0.0469 |
| ACCGCCTG | -0.21 |
| ATCTACCA | 0.196 |
| GAGGACTA | -0.0501 |
| GAGTGACA | 0.0844 |
| CTAACGTC | 0.0547 |
| CGCTGGAG | -0.1 |
| CACGAACG | -0.0181 |
| ATGCCTAA | 0.00148 |
| GCGGGAAC | -0.0424 |
| AACCTCCA | -0.257 |
| GACTGCGA | -0.176 |
| CCCACCAC | -0.091 |
| GATGGTGA | -0.0452 |

| Sequence | PBM E-score |
| --- | --- |
| ATTGCAAC | 0.107 |
| CCAACGCC | -0.104 |
| AAACCGGG | -0.0388 |
| TAGATAGA | 0.143 |
| TCATTCGA | 0.195 |
| CAAGCTGG | -0.192 |
| AGAAAGAA | 0.0357 |
| AGGTGCGA | -0.233 |
| GCTGCTGA | -0.00022 |
| AACCCCCG | -0.416 |
| AACCCCAG | -0.164 |
| AACTGCGA | -0.0434 |
| ATTTTTCC | 0.0331 |
| CTGGAAGA | 0.0574 |
| GCAGCGTA | -0.113 |
| AAAGGCCT | -0.143 |
| AAAGAACC | 0.0747 |
| GCTCTCCA | -0.215 |
| CTGACCGA | -0.0675 |
| AACTTTCA | 0.0342 |
| AGATCGGC | -0.0596 |
| AGGGATAG | -0.0948 |
